Results reported in patent US20210161923A1, “Prebiotic Compositions And Methods Of Production Thereof” (OPTIBIOTIX LIMITED, priority 2018, published 2021).

Assay: Sensory profiling (QDA) of oligosaccharide solutions by trained sensory panel
Settings: for Sweet (mean score 0-100) / Bitter (mean score 0-100) / CandyFloss (mean score 0-100) / Cardboard_/_Stale (mean score 0-100) / CrustyBread (mean score 0-100) / Metallic (mean score 0-100) / Perfume (mean score 0-100) / Salty (mean score 0-100) / Sour/Dairy/Rancid (mean score 0-100) / StrengthOffFlavour (mean score 0-100) / Sweet After Taste (mean score 0-100): 5% w/v in mineral water; for Sweet (mean score 0-100): line scale 0-100 anchored by sucrose standards; for Bitter (mean score 0-100) / CandyFloss (mean score 0-100) / Cardboard_/_Stale (mean score 0-100) / CrustyBread (mean score 0-100) / Metallic (mean score 0-100) / Perfume (mean score 0-100) / Salty (mean score 0-100) / Sour/Dairy/Rancid (mean score 0-100) / StrengthOffFlavour (mean score 0-100) / Sweet After Taste (mean score 0-100): scale 0-100; for Sweet After Taste (mean score 0-100): scored after 30 second delay; for Relative Sweetness (sucrose = 100) (RS), Mean / Relative Sweetness (sucrose = 100) (RS), Min / Relative Sweetness (sucrose = 100) (RS), Max: RS=1/(5/ES)x100; for Relative Sweetness (sucrose = 100) (RS), Mean: 5% w/v saccharide; for Relative Sweetness (sucrose = 100) (RS), Min: from mean minus standard deviation; for Relative Sweetness (sucrose = 100) (RS), Max: from mean plus standard deviation; for Equivalent Sucrose (%) to 5% saccharide, Mean: from mean sweetness rating by sucrose regression equation; for Equivalent Sucrose (%) to 5% saccharide, Min: from mean sweetness rating minus standard deviation; for Equivalent Sucrose (%) to 5% saccharide, Max: from mean sweetness rating plus standard deviation

SMILES | Sweet (mean score 0-100) | Bitter (mean score 0-100) | CandyFloss (mean score 0-100) | Cardboard_/_Stale (mean score 0-100) | CrustyBread (mean score 0-100) | Metallic (mean score 0-100) | Perfume (mean score 0-100) | Salty (mean score 0-100) | Sour/Dairy/Rancid (mean score 0-100) | StrengthOffFlavour (mean score 0-100) | Sweet After Taste (mean score 0-100) | Relative Sweetness (sucrose = 100) (RS), Mean | Relative Sweetness (sucrose = 100) (RS), Min | Relative Sweetness (sucrose = 100) (RS), Max | Equivalent Sucrose (%) to 5% saccharide, Mean [%] | Equivalent Sucrose (%) to 5% saccharide, Min [%] | Equivalent Sucrose (%) to 5% saccharide, Max [%]
OC[C@H]1O[C@@H](O[C@@H]2[C@@H](CO)OC(O)(CO)[C@H]2O)[C@H](O)[C@@H](O)[C@H]1O (mixture of isomers) [LACTULOSE, lactulose] | 56.4 | 2.9 | 9.3 | 5.1 | 0.0 | 2.7 | 1.0 | 2.4 | 4.9 | 26.4 | 33.4 | 31 | 22 | 40 | 1.6 | 1.1 | 2.0
OC[C@H]1O[C@@H](O[C@H]2[C@H](O)[C@@H](O)C(O)O[C@@H]2CO)[C@H](O)[C@@H](O)[C@H]1O (stereo partly shown) [LACTOSE, lactose] | 49.5 | 7.5 | 3.7 | 9.0 | 0.6 | 3.5 | 0.0 | 2.5 | 6.9 | 26.5 | 30.6 | 28 | 18 | 38 | 1.4 | 0.9 | 1.9
